Tested on: intestinal microbiome
Assay: Fecal microbiome analysis after TBI
Type: in vivo, mouse
Conditions: fecal samples 14 days after LD80/30 TBI; FIG. 16A

B1: G-CSF: Granulocyte colony-stimulating factor polypeptide, irradiation mitigator (protein, listed as Homo sapiens)
chain: MAGPATQSPMKLMALQLLLWHSALWTVQEATPLGPASSLPQSFLLKCLEQVRKIQGDGAALQEKLVSECATYKLCHPEELVLLGHSLGIPWAPLSSCPSQALQLAGCLSQLHSGLFLYQGLLQALEGISPELGPTLDTLQLDVADFATTIWQQMEELGMAPALQPTQGAMPAFASAFQRRAGGVLVASHLQSFLEVSYRVLRHLAQP
additional taxa differences in survivors versus rad-control: decreased Akkermansia
